From PMC12284064
These are yes or no findings as the source states them, for the method shown. In cells and extracts the contact can be indirect. A yes stands for co-enrichment or nearness to the bait. Other partners may have been found.

By UniProt entry, the sequences of proteins in these tests, tags left out.
UniProt Q9BPZ7: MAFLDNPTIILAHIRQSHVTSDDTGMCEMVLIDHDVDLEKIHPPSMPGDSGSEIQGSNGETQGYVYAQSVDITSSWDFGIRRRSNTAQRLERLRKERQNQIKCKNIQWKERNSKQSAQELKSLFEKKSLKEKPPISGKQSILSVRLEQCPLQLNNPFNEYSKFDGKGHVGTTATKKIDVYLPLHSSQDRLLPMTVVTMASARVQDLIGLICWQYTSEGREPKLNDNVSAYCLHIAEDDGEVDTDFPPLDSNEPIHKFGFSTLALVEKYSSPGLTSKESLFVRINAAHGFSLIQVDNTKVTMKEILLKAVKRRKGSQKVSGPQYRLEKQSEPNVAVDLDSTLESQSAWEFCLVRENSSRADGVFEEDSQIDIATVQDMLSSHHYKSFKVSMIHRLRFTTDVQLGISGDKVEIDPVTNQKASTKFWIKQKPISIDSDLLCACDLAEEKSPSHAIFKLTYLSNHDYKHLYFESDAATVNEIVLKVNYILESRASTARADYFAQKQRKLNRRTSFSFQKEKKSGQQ

Target: Flag-S-SIN1 (UniProt Q9BPZ7)
Assay: affinity purification with mass spectrometry; tandem affinity purification (anti-Flag affinity gel, 3xFlag peptide elution, then S-protein agarose) from PANC-1 cells expressing Flag-S-SIN1 or Flag-S-USP33; MG132 10 uM 10 h; NETN buffer pH 8.0, 300 mM NaCl, 0.5% NP-40; LC-MS/MS

B1: ubiquitin-specific protease 33 (USP33), endogenous (enzyme, UniProt Q8TEY7 1-942)
chain: MTGSNSHITILTLKVLPHFESLGKQEKIPNKMSAFRNHCPHLDSVGEITKEDLIQKSLGTCQDCKVQGPNLWACLENRCSYVGCGESQVDHSTIHSQETKHYLTVNLTTLRVWCYACSKEVFLDRKLGTQPSLPHVRQPHQIQENSVQDFKIPSNTTLKTPLVAVFDDLDIEADEEDELRARGLTGLKNIGNTCYMNAALQALSNCPPLTQFFLDCGGLARTDKKPAICKSYLKLMTELWHKSRPGSVVPTTLFQGIKTVNPTFRGYSQQDAQEFLRCLMDLLHEELKEQVMEVEEDPQTITTEETMEEDKSQSDVDFQSCESCSNSDRAENENGSRCFSEDNNETTMLIQDDENNSEMSKDWQKEKMCNKINKVNSEGEFDKDRDSISETVDLNNQETVKVQIHSRASEYITDVHSNDLSTPQILPSNEGVNPRLSASPPKSGNLWPGLAPPHKKAQSASPKRKKQHKKYRSVISDIFDGTIISSVQCLTCDRVSVTLETFQDLSLPIPGKEDLAKLHSSSHPTSIVKAGSCGEAYAPQGWIAFFMEYVKRFVVSCVPSWFWGPVVTLQDCLAAFFARDELKGDNMYSCEKCKKLRNGVKFCKVQNFPEILCIHLKRFRHELMFSTKISTHVSFPLEGLDLQPFLAKDSPAQIVTYDLLSVICHHGTASSGHYIAYCRNNLNNLWYEFDDQSVTEVSESTVQNAEAYVLFYRKSSEEAQKERRRISNLLNIMEPSLLQFYISRQWLNKFKTFAEPGPISNNDFLCIHGGVPPRKAGYIEDLVLMLPQNIWDNLYSRYGGGPAVNHLYICHTCQIEAEKIEKRRKTELEIFIRLNRAFQKEDSPATFYCISMQWFREWESFVKGKDGDPPGPIDNTKIAVTKCGNVMLRQGADSGQISEETWNFLQSIYGGGPEVILRPPVVHVDPDILQAEEKIEVETRSL
- binding: binds
